Experimental data published in patent US20220042081.

Experiments:
HgaI = assay: enzyme reaction in vitro; conditions: purified recombinant protein, protein details: New England Biolabs
MphR (Escherichia coli) = assay: inhibition of the protein; conditions: increasing MphR (0-3 uM) reduces HgaI/TMSD rate; NEBuffer 1.1; derepressed by erythromycin; purified recombinant protein; protein details: C-terminal His-tag (pET-28a)

Sequence	activity on this sequence (HgaI)	activity on this sequence (MphR (Escherichia coli))	activity on this sequence (HgaI; HgaI cleavage 5 nt downstream of GACGC, inhibited by TetR, restored by tetracycline, NEBuffer 1.1)
ATAAAGACGCGAATATAACCGACGTGACTGTTACATTTAGGTGG (double strand) [S_Ery]	active	active	
ATAAAGACGCTCCCTATCAGTGATAGAGA (double strand) [S_Tc]			active

For part of these data: For at least one entry, the source does not settle the construct or the ends of the probe.
